Measurements reported in PubChem BioAssay AID1224830 (NIAID, 2016).
Shown is an unselected part of about 18,000 deposited reagents. Of all reagents, about 2,900 (16%) are marked active. 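Calls are made per well; low scores hint the gene aids the LPS response, high scores that it dampens it.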 Repeated entries: four replicate wells of each siRNA pool.

Screen: 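Regulators of TLR4 signalling towards TNF-alpha in macrophage-like cells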 (primary screen)
Cells: human THP-1 monocytic leukaemia cells, TNF dual-luciferase reporter clone, PMA-differentiated to macrophage-like cells
Reagents: siRNA pool against human genes, 50 nM
Time to read-out: LPS for 4 h, given about 3 days after siRNA transfection
Challenge: bacterial LPS (TLR4 ligand), 10 ng/ml
Read-out: 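TNF firefly reporter luminescence divided by renilla, normalised to the plate median, then turned into a robust z-score for each replicate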
Scale: TNF reporter robust z-score: higher = stronger TNF reporter response to LPS
Call rule: 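Each well counts as active if its z-score is over 2.8 or under -1.5; controls are left without a call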

| target | TNF reporter robust z-score | Outcome |
| --- | --- | --- |
| USP9X | -0.48 | inactive |
| USP9X | -0.37 | inactive |
| USP9X | -0.47 | inactive |
| USP9X | -0.04 | inactive |
| MMP13 | 1.19 | inactive |
| MMP13 | 0.48 | inactive |
| MMP13 | 2.31 | inactive |
| MMP13 | 1 | inactive |
| CLTCL1 | 2.27 | inactive |
| CLTCL1 | 0.47 | inactive |
| CLTCL1 | 1.55 | inactive |
| CLTCL1 | 2.24 | inactive |
| SPECC1L | 3.28 | active |
| SPECC1L | 3.69 | active |
| SPECC1L | 0.48 | inactive |
| SPECC1L | 2.95 | active |
| PPA2 | 0.26 | inactive |
| PPA2 | -0.75 | inactive |
| PPA2 | 0.08 | inactive |
| PPA2 | 1.8 | inactive |
| ZNF706 | 0.99 | inactive |
| ZNF706 | 1.54 | inactive |
| ZNF706 | 1.36 | inactive |
| ZNF706 | 0.96 | inactive |
| SP3 | 0.32 | inactive |
| SP3 | 0.75 | inactive |
| SP3 | -0.07 | inactive |
| SP3 | 0.12 | inactive |
| UBE2T | 2.66 | inactive |
| UBE2T | 2.88 | active |
| UBE2T | 1.55 | inactive |
| UBE2T | 0.75 | inactive |
| KRTAP10-5 | 0.73 | inactive |
| KRTAP10-5 | 0.89 | inactive |
| KRTAP10-5 | -0.71 | inactive |
| KRTAP10-5 | 0.4 | inactive |
| PLAT | -0.41 | inactive |
| PLAT | -0.99 | inactive |
| PLAT | -0.42 | inactive |
| PLAT | 0.25 | inactive |
| SYT16 | -0.76 | inactive |
| SYT16 | -0.85 | inactive |
| SYT16 | -0.7 | inactive |
| SYT16 | -0.5 | inactive |
| OR11H6 | -0.04 | inactive |
| OR11H6 | -0.49 | inactive |
| OR11H6 | -0.39 | inactive |
| OR11H6 | -0.01 | inactive |

Reformatted: results already given
KRTAP10-5
- TNF reporter robust z-score: 0.4
- Outcome: inactive

PLAT
- TNF reporter robust z-score: -0.41
- Outcome: inactive

PLAT
- TNF reporter robust z-score: -0.99
- Outcome: inactive

PLAT
- TNF reporter robust z-score: -0.42
- Outcome: inactive
